Patent US20250277032A1
These are yes or no findings as the source states them, for the method shown. Binding calls can cover weak binding; strength is not graded here.

Target: cynomolgus ILT3 (cynomolgus)
Test: flow cytometry histograms, antibody at 50 µg/ml

binding: binds
B1: 7A5 (antibody, V domains shown)
VH: EVKLVESGGGLVKPGGSLKLSCAASGFTFSSYAMSWVRQTPAKRLEWVATISSDGGNTYYTDSVKGRFTISRDNARNTLDLQMSSLRSEDTAMYYCARHDGRGALDYWGQGTSVTVSS
VL: DIQMTQTTSSLSASLGDRVTISCRASQDISNYLNWYQQKPDGTVKLLIYYTSRLHSGVPSRFSGSGSGTDYSLTISNLEQEDIATYFCQQGNTLPWTFGGGTKLEIK
